The list shows a part of the results. Values are raw readings; no control value is given beside them.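 First-pass screen: polymyxin B was added at a level that permeabilizes the Salmonella outer membrane while sparing the inner membrane. DMSO wells, with and without polymyxin B, defined maximum growth. Because plates differed from one another, each plate's data were ranked separately and the compounds with the lowest OD600 were carried forward as hits.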
System: Salmonella enterica serovar Typhimurium SL1344
Assay: bacterial growth OD600 after 18 h with compound and polymyxin B; higher = more bacterial growth (less inhibition)
Settings: 50 µM, Mueller-Hinton broth

| Compound | bacterial growth OD600 (polymyxin B 1 µg/mL) | bacterial growth OD600 (polymyxin B 0.75 µg/mL) |
| --- | --- | --- |
| O=C(NC1CC(=O)N(CCCc2ccccc2)C1)c1ccoc1 (configuration not stated) | 0.959 | – |
| Cc1cc(C)n(CC(C)NC(=O)c2oc3c(F)cccc3c2C)n1 (configuration not stated) | 0.902 | – |
| O=C(CN1CCOC1=O)NCc1nc(NCCCc2ccccc2)c2ccccc2n1 | – | 0.818 |
| CN(C)c1cccc(C(=O)N2CCCC(Nc3ccc(F)c(F)c3)C2)c1 (configuration not stated) | 0.446 | – |
| CSCC(=O)N1CCCC(CCc2c(F)cccc2F)C1 (configuration not stated) | – | 0.006 |
| O=C(c1ccco1)N1CCOc2ccc(CN3CCN(c4ccccc4)CC3)cc2C1 | – | 0.869 |
| Cc1cc(C)n(-c2cccc(CN3CC[C@@H](N4CCN(C)CC4)[C@H](O)C3)c2)n1 | 0.97 | – |
| CCOC(=O)CN(C)c1ccc(-c2nc(-c3ccccc3C)no2)cn1 | – | 0.712 |
| CC1(C(=O)NC2CC(=O)N(CCc3cccc(Cl)c3)C2)CC1 (configuration not stated) | 0.916 | – |
| COc1ccc(CCN2CCCC(CN(C)Cc3c(OC)cccc3OC)C2)cc1 (configuration not stated) | – | 1 |
| CCCn1ncc(CN2CCOC(CCc3ccccc3)C2)c1C (configuration not stated) | – | 0.975 |
| COc1ccc(CN2CCC(CO)(CCCc3ccccc3)CC2)cc1 | 0.93 | – |
| NC(=O)C1CCCN(Cc2ccc3c(c2)CN(Cc2cccn2-c2ccc(Cl)cn2)CCO3)C1 (configuration not stated) | – | 0.817 |
| COc1ccc(C(=O)NC2CC2)c(OC2CCN(Cc3ccccc3F)CC2)c1 | 1.01 | – |
| COC(=O)C1CCCCN1C(=O)c1c(OC)cc(=O)n2c1CCN(Cc1ccc(F)cc1)CC2 (configuration not stated) | – | 0.764 |
| COc1cccc(CNC2CCCc3nc(-c4cccnc4)ncc32)c1 (configuration not stated) | 0.777 | – |

| Compound | bacterial growth OD600 (polymyxin B 1 µg/mL) | bacterial growth OD600 (polymyxin B 0.75 µg/mL) |
| --- | --- | --- |
| CCn1ccnc1CN(C)C(=O)c1cc(COc2cccc(C(C)=O)c2)on1 | 0.972 | – |
| CCN(Cc1ccncc1)C(=O)c1cnn(-c2ncc3c(n2)-c2ccccc2CCC3)c1C1CC1 | – | 0.961 |
| O=C(CCc1cnccn1)N1CCCC(CCc2cccc(F)c2)C1 (configuration not stated) | – | 0.881 |
| CN(CC1CCCCO1)C(=O)c1ccc2nc(C3CCCCC3)oc2c1 (configuration not stated) | 0.861 | – |
| Cc1c(C(C)NCc2nccn2C)cnn1-c1cccc(F)c1 (configuration not stated) | 1.04 | – |
| Cc1ccccc1C(=O)Nc1ccnn1C1CCN(C(=O)CCc2c(C)noc2C)CC1 | 1.08 | – |
| CC(C)CN1CCC(C(=O)Nc2cccc(-c3cccc(F)c3)c2)CC1 | 0.859 | – |
| CSc1cccc(CN2CCC(N3CCCC(C(=O)NC4CC4)C3)CC2)c1 (configuration not stated) | – | 0.769 |
| CCN(C)CC1(O)CCCN(Cc2cccc(F)c2F)C1=O (configuration not stated) | 0.955 | – |
| COc1cccc(CN(C)CC2CCCN(CCc3ccc(Cl)cc3)C2)c1OC (configuration not stated) | 0.788 | – |
| CC(=O)c1ccccc1-c1ccc2c(c1)CC(CNC(=O)c1occc1C)O2 (configuration not stated) | – | 0.504 |
| COC(=O)CC[C@H](NC(=O)c1ccc(-n2cc(NC(=O)c3ccc(C)cc3C)cn2)cc1)C(=O)OC | – | 0.775 |
| O=C(Cn1nnnc1CN1CCCCCC1)NCC1CCCO1 (configuration not stated) | – | 0.963 |
| CC(C)(C)CN1CCCC2(CCN(C(=O)CCC3CCCC3)C2)C1=O (configuration not stated) | 0.862 | – |
| COc1ccc2c(c1)-c1nc(-n3ncc(C(=O)N4CCN(CCO)CC4)c3C3CC3)ncc1CC2 | – | 0.836 |
| Cc1ccc(CN(C)C(=O)c2cc(NC(=O)CC3CCCC3)cc3nc(C4CCCO4)n(C)c23)cc1 (configuration not stated) | – | 0.898 |

Some of these compounds in order of SMILES length, low to high:

| Compound | bacterial growth OD600 (polymyxin B 1 µg/mL) | bacterial growth OD600 (polymyxin B 0.75 µg/mL) |
| --- | --- | --- |
| CSCC(=O)N1CCCC(CCc2c(F)cccc2F)C1 (configuration not stated) | – | 0.006 |
| O=C(NC1CC(=O)N(CCCc2ccccc2)C1)c1ccoc1 (configuration not stated) | 0.959 | – |
| COc1ccc(C(=O)NC2CC2)c(OC2CCN(Cc3ccccc3F)CC2)c1 | 1.01 | – |

Source: the supplement of paper PMC12889115
